According to patent US8552007B2, “Mesoionic pesticides” (E.I. du Pont de Nemours and Company, priority 2008, dated 2013):
Structures can show the parent of a compound that is named as a salt. Where two headings read alike, the source gives them in different places. Some of these results come from one statement about several compounds together. For part of these data: At least one structure is not confirmed: it was looked up by name or label, or the drawing left a doubt.

How the values were obtained:
Type in all cases: in vivo
[1] = system: potato leafhopper (Empoasca fabae); conditions: Soleil bean plant, 6 days
[2] = system: cat flea (Ctenocephalides felis); assay: Test J: control of cat flea following oral administration of test compound to a mouse; conditions: CD-1 mouse orally dosed 10 mg/kg; fleas applied 2 h after dosing; 48 hours after flea application
[3] = system: diamondback moth (Plutella xylostella); assay: Test A: control of diamondback moth, foliar spray on pre-infested radish plant; conditions: sprayed at 250 ppm, 6 days at 25° C., very good to excellent control
[4] = system: corn planthopper (Peregrinus maidis); conditions: maize plant, 6 days
Description: For evaluating control of corn planthopper (Peregrinus maidis) through contact and/or systemic means, the test unit consisted of a small open container with a 3-4-day-old maize plant (spike) inside. White sand was added to the top of the soil prior to application. Test compounds were formulated and sprayed at 250 and 50 ppm and replicated three times as described for Test A. After spraying, the test units were allowed to dry for 1 h before they were post-infested with ˜15-20 nymphs (18 to 21 day old) by sprinkling them onto the sand with a salt shaker. A black, screened cap was placed on the top of the cylinder. The test units were held for 6 days in a growth chamber at 22-24° C. and 50-70% relative humidity. Each test unit was then visually assessed for insect mortality.

[5] = system: fall armyworm (Spodoptera frugiperda); assay: Test B: control of fall armyworm, foliar spray on pre-infested maize plant; conditions: sprayed at 250 ppm, very good to excellent control

## O=c1c(-c2ccccc2)c([O-])[n+](Cc2ccc(Cl)nc2)c2sccn12 [Compound 136]
[1]; sprayed at 50 ppm
  mortality: ≥ 80%
[2]
  mortality: ≥ 20%
[3]
  control efficacy: feeding damage (40% or less feeding damage and/or 100% mortality): ≤ 40%

## O=c1c(-c2ccc(F)cc2)c([O-])[n+](Cc2ccc(Cl)nc2)c2ccccn12 [Compound 57]
[1]; sprayed at 50 ppm
  mortality: ≥ 80%
[1]; sprayed at 250 ppm
  mortality: ≥ 80%
[2]
  mortality: ≥ 20%
[3]
  control efficacy: feeding damage (40% or less feeding damage and/or 100% mortality): ≤ 40%

## CCC[n+]1c([O-])c(-c2cc(Cl)cc(C)c2F)c(=O)n2ccccc21 [Compound 319]
[2]
  mortality: ≥ 20%
[3]
  control efficacy: feeding damage (40% or less feeding damage and/or 100% mortality): ≤ 40%

## O=c1c(-c2ccc(F)cc2F)c([O-])[n+](CC(F)(F)F)c2ccccn12 [Compound 10]
[1]; sprayed at 50 ppm
  mortality: ≥ 80%
[1]; sprayed at 250 ppm
  mortality: ≥ 80%
[2]
  mortality: ≥ 20%
[3]
  control efficacy: feeding damage (40% or less feeding damage and/or 100% mortality): ≤ 40%

## O=c1c(-c2ccc(F)c(F)c2)c([O-])[n+](Cc2ccc(Cl)nc2)c2ccccn12 [Compound 82]
[1]; sprayed at 50 ppm
  mortality: ≥ 80%
[1]; sprayed at 250 ppm
  mortality: ≥ 80%
[2]
  mortality: ≥ 20%
[3]
  control efficacy: feeding damage (40% or less feeding damage and/or 100% mortality): ≤ 40%

## O=C(c1c([O-])[n+](Cc2cnc(Cl)s2)c2ccccn2c1=O)C(F)(F)C(F)(F)F [Compound 713]
[4]; sprayed at 50 ppm
  mortality: ≥ 80%
[1]; sprayed at 50 ppm
  mortality: ≥ 80%
[3]
  control efficacy: feeding damage (40% or less feeding damage and/or 100% mortality): ≤ 40%

## O=c1c(-c2ccc(F)cc2)c([O-])[n+](Cc2ccc(Cl)nc2)c2sccn12 [Compound 137]
[1]; sprayed at 50 ppm
  mortality: ≥ 80%
[2]
  mortality: ≥ 20%
[3]
  control efficacy: feeding damage (40% or less feeding damage and/or 100% mortality): ≤ 40%

## C=CC[n+]1c([O-])c(-c2ccccc2)c(=O)n2ccccc21 [Compound 122, 2-hydroxy-4-oxo-3-phenyl-1-(2-propen-1-yl)-4H-pyrido[1,2-a]pyrimidinium inner salt]
[4]; sprayed at 250 ppm
  mortality: at least 80%
[1]; sprayed at 250 ppm
  mortality: ≥ 80%
[3]
  control efficacy: feeding damage (40% or less feeding damage and/or 100% mortality): ≤ 40%

## O=c1c(-c2cc(Cl)ccc2F)c([O-])[n+](Cc2cnc(Cl)s2)c2sccn12 [Compound 148]
[2]
  mortality: ≥ 20%
[3]
  control efficacy: feeding damage (40% or less feeding damage and/or 100% mortality): ≤ 40%

## Cc1cc(F)ccc1-c1c([O-])[n+](Cc2ccc(Cl)nc2)c2ccccn2c1=O [Compound 96]
[1]; sprayed at 50 ppm
  mortality: ≥ 80%
[1]; sprayed at 250 ppm
  mortality: ≥ 80%
[2]
  mortality: ≥ 20%

## O=c1c(-c2ccc(F)c(F)c2F)c([O-])[n+](Cc2ccc(Cl)nc2)c2ccccn12 [Compound 80]
[1]; sprayed at 50 ppm
  mortality: ≥ 80%
[1]; sprayed at 250 ppm
  mortality: ≥ 80%
[2]
  mortality: ≥ 20%
[3]
  control efficacy: feeding damage (40% or less feeding damage and/or 100% mortality): ≤ 40%

## COc1ccc2cc(-c3c([O-])[n+](Cc4ccc(Cl)nc4)c4ccccn4c3=O)ccc2c1 [Compound 574]
[5]
  control efficacy: feeding damage (40% or less feeding damage and/or 100% mortality): ≤ 40%
[4]; sprayed at 50 ppm
  mortality: ≥ 80%
[4]; sprayed at 250 ppm
  mortality: at least 80%
[1]; sprayed at 250 ppm
  mortality: ≥ 80%

## O=c1c(-c2ccccc2F)c([O-])[n+](Cc2ccc(Cl)nc2)c2ccccn12 [Compound 72]
[1]; sprayed at 50 ppm
  mortality: ≥ 80%
[1]; sprayed at 250 ppm
  mortality: ≥ 80%
[2]
  mortality: ≥ 20%
[3]
  control efficacy: feeding damage (40% or less feeding damage and/or 100% mortality): ≤ 40%

## O=c1c(-c2cc(F)ccc2F)c([O-])[n+](Cc2ccc(Cl)nc2)c2ccccn12 [Compound 88]
[1]; sprayed at 50 ppm
  mortality: ≥ 80%
[1]; sprayed at 250 ppm
  mortality: ≥ 80%
[2]
  mortality: ≥ 20%
[3]
  control efficacy: feeding damage (40% or less feeding damage and/or 100% mortality): ≤ 40%

## COc1cccc(-c2c([O-])[n+](CC(F)(F)F)c3ccccn3c2=O)c1 [Compound 2]
[1]; sprayed at 50 ppm
  mortality: ≥ 80%
[1]; sprayed at 250 ppm
  mortality: ≥ 80%
[2]
  mortality: ≥ 20%
[3]
  control efficacy: feeding damage (40% or less feeding damage and/or 100% mortality): ≤ 40%

## O=c1c(I)c([O-])[n+](CC(F)(F)F)c2ccccn12 [Compound 111]
[2]
  mortality: ≥ 20%

## COc1ccc(-c2ccc(Cl)nc2)cc1-c1c([O-])[n+](Cc2ccc(Cl)nc2)c2ccccn2c1=O [Compound 539]
[4]; sprayed at 50 ppm
  mortality: ≥ 80%
[1]; sprayed at 50 ppm
  mortality: ≥ 80%
[3]
  control efficacy: feeding damage (40% or less feeding damage and/or 100% mortality): ≤ 40%

## O=c1c(-c2ccc(Br)cc2)c([O-])[n+](Cc2ccc(Cl)nc2)c2ccccn12 [Compound 104]
[1]; sprayed at 50 ppm
  mortality: ≥ 80%
[1]; sprayed at 250 ppm
  mortality: ≥ 80%
[2]
  mortality: ≥ 20%
[3]
  control efficacy: feeding damage (40% or less feeding damage and/or 100% mortality): ≤ 40%

## O=c1c(-c2cccc(Br)c2)c([O-])[n+](Cc2cnc(Cl)s2)c2ccccn12 [Compound 124]
[1]; sprayed at 50 ppm
  mortality: ≥ 80%
[2]
  mortality: ≥ 20%

## O=c1c(-c2ccc(Cl)cc2)c([O-])[n+](Cc2ccc(Cl)nc2)c2ccccn12 [Compound 106]
[1]; sprayed at 50 ppm
  mortality: ≥ 80%
[1]; sprayed at 250 ppm
  mortality: ≥ 80%
[2]
  mortality: ≥ 20%
[3]
  control efficacy: feeding damage (40% or less feeding damage and/or 100% mortality): ≤ 40%

## O=c1c(-c2cccc(F)c2)c([O-])[n+](Cc2ccc(Cl)nc2)c2ccccn12 [Compound 61]
[1]; sprayed at 50 ppm
  mortality: ≥ 80%
[1]; sprayed at 250 ppm
  mortality: ≥ 80%
[2]
  mortality: ≥ 20%
[3]
  control efficacy: feeding damage (40% or less feeding damage and/or 100% mortality): ≤ 40%

## COc1cc(-c2c([O-])[n+](Cc3ccc(Cl)nc3)c3ccccn3c2=O)ccc1F [Compound 101]
[1]; sprayed at 50 ppm
  mortality: ≥ 80%
[1]; sprayed at 250 ppm
  mortality: ≥ 80%
[2]
  mortality: ≥ 20%
[3]
  control efficacy: feeding damage (40% or less feeding damage and/or 100% mortality): ≤ 40%

## O=C(c1c([O-])[n+](Cc2cnc(Cl)s2)c2ccccn2c1=O)C(F)(F)F [Compound 702, 1-[(2-chloro-5-thiazolyl)methyl]-2-hydroxy-4-oxo-3-(2,2,2-trifluoroacetyl)-4H-pyrido[1,2-a]pyrimidinium inner salt]
[4]; sprayed at 50 ppm
  mortality: ≥ 80%
[1]; sprayed at 50 ppm
  mortality: ≥ 80%
[3]
  control efficacy: feeding damage (40% or less feeding damage and/or 100% mortality): ≤ 40%

## COc1cccc(-c2ccc(C[n+]3c([O-])c(-c4ccccc4)c(=O)n4ccccc43)cn2)c1 [Compound 599]
[2]
  mortality: ≥ 20%

## O=c1c(-c2ccccc2)c([O-])[n+](Cc2ccc(Cl)nc2)c2ccccn12 [Compound 81]
[2]
  mortality: ≥ 20%

## N#Cc1ccc(-c2c([O-])[n+](Cc3ccc(Cl)nc3)c3ccccn3c2=O)cc1 [Compound 105]
[1]; sprayed at 50 ppm
  mortality: ≥ 80%
[1]; sprayed at 250 ppm
  mortality: ≥ 80%
[2]
  mortality: ≥ 20%

## O=c1c(-c2ccc(F)cc2F)c([O-])[n+](Cc2ccc(Cl)nc2)c2ccccn12 [Compound 63]
[1]; sprayed at 50 ppm
  mortality: ≥ 80%
[1]; sprayed at 250 ppm
  mortality: ≥ 80%
[2]
  mortality: ≥ 20%
[3]
  control efficacy: feeding damage (40% or less feeding damage and/or 100% mortality): ≤ 40%

## O=C(c1ccccc1)c1c([O-])[n+](Cc2cnc(Cl)s2)c2ccccn2c1=O [Compound 701]
[4]; sprayed at 50 ppm
  mortality: ≥ 80%
[3]
  control efficacy: feeding damage (40% or less feeding damage and/or 100% mortality): ≤ 40%

## O=c1c(-c2cccc(OC(F)(F)F)c2)c([O-])[n+](Cc2cc(Cl)no2)c2ccccn12 [Compound 248]
[4]; sprayed at 50 ppm
  mortality: ≥ 80%
[3]
  control efficacy: feeding damage (40% or less feeding damage and/or 100% mortality): ≤ 40%

## CC(c1ccc(Cl)nc1)[n+]1c([O-])c(-c2cccc(-c3ccc(F)nc3)c2)c(=O)n2ccccc21 (stereo not drawn) [Compound 546]
[4]; sprayed at 50 ppm
  mortality: ≥ 80%
[3]
  control efficacy: feeding damage (40% or less feeding damage and/or 100% mortality): ≤ 40%

## O=c1c(-c2ccc(F)cc2)c([O-])[n+](Cc2cnc(Cl)s2)c2sccn12 [Compound 140]
[1]; sprayed at 50 ppm
  mortality: ≥ 80%
[2]
  mortality: ≥ 20%
[3]
  control efficacy: feeding damage (40% or less feeding damage and/or 100% mortality): ≤ 40%

## O=c1c(-c2ccc(F)cc2F)c([O-])[n+](Cc2ccc(Cl)nc2)c2sccn12 [Compound 151]
[1]; sprayed at 50 ppm
  mortality: ≥ 80%
[2]
  mortality: ≥ 20%

## O=c1c(-c2ccc(F)cc2)c([O-])[n+](Cc2cncs2)c2ccccn12 [Compound 221]
[4]; sprayed at 50 ppm
  mortality: ≥ 80%
[3]
  control efficacy: feeding damage (40% or less feeding damage and/or 100% mortality): ≤ 40%

## CCC[n+]1c([O-])c(-c2cccc(C#N)c2)c(=O)n2ccccc21 [Compound 282]
[4]; sprayed at 250 ppm
  mortality: at least 80%
[3]
  control efficacy: feeding damage (40% or less feeding damage and/or 100% mortality): ≤ 40%

## O=c1c(-c2cc(Cl)ccc2F)c([O-])[n+](Cc2ccc(Cl)nc2)c2sccn12 [Compound 154]
[2]
  mortality: ≥ 20%
[3]
  control efficacy: feeding damage (40% or less feeding damage and/or 100% mortality): ≤ 40%

## N#Cc1cccc(-c2c([O-])[n+](Cc3ccc(Cl)nc3)c3ccccn3c2=O)c1 [Compound 107]
[2]
  mortality: ≥ 20%
[3]
  control efficacy: feeding damage (40% or less feeding damage and/or 100% mortality): ≤ 40%

## CCC[n+]1c([O-])c(-c2ccc(C#N)cc2)c(=O)n2ccccc21 [Compound 41]
[1]; sprayed at 50 ppm
  mortality: ≥ 80%
[1]; sprayed at 250 ppm
  mortality: ≥ 80%
[2]
  mortality: ≥ 20%

## O=c1c(-c2ccc(F)cc2)c([O-])[n+](Cc2ccc(Cl)nc2)c2c(F)cccn12 [Compound 588]
[1]; sprayed at 250 ppm
  mortality: ≥ 80%
[2]
  mortality: ≥ 20%

## CCC[n+]1c([O-])c(-c2cc(F)cc(F)c2)c(=O)n2ccccc21 [Compound 20]
[4]; sprayed at 50 ppm
  mortality: ≥ 80%
[3]
  control efficacy: feeding damage (40% or less feeding damage and/or 100% mortality): ≤ 40%

## O=c1c(-c2ccccc2)c([O-])[n+](CC(F)(F)F)c2ccccn12 [Compound 7, 2-hydroxy-4-oxo-3-phenyl-1-(2,2,2-trifluoroethyl)-4H-pyrido[1,2-a]-pyrimidinium inner salt]
[4]; sprayed at 50 ppm
  mortality: ≥ 80%
[4]; sprayed at 250 ppm
  mortality: at least 80%
[1]; sprayed at 50 ppm
  mortality: ≥ 80%
[1]; sprayed at 250 ppm
  mortality: ≥ 80%
[3]
  control efficacy: feeding damage (40% or less feeding damage and/or 100% mortality): ≤ 40%

## O=c1c(-c2ccncc2Cl)c([O-])[n+](CC(F)(F)F)c2ccccn12 [Compound 121]
[2]
  mortality: ≥ 20%
